Measurements as given in the supplement of paper PMC3334620.
Whole data set: some 33,000 sequences, median “E-score (-0.5 to 0.5)” near -0.016, cut for the highest 2% near 0.3. The list shows a part of the results.

Target: T1, Yer184c (UniProt P39961)
T1 sequence: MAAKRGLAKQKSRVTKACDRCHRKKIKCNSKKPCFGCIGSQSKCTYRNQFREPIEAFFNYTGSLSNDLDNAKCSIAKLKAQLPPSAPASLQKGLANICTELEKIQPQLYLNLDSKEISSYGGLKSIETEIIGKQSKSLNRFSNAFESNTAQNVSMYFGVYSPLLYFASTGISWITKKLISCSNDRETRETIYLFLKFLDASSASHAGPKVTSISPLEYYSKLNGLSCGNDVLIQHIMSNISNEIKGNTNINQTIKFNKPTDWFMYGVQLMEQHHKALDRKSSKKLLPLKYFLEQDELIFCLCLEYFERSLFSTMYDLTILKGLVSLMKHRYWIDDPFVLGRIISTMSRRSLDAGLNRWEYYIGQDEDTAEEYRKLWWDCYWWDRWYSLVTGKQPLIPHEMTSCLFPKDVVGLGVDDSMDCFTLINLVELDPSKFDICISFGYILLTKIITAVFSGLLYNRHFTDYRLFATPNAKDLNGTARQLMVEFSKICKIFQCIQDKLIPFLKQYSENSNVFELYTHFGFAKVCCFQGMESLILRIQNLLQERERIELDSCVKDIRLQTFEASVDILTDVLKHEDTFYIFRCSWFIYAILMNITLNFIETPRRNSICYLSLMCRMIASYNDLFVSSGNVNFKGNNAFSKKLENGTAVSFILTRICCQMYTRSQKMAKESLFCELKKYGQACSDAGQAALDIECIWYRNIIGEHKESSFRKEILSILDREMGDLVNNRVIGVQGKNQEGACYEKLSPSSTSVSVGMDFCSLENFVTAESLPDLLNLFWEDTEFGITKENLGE
Assay: PBM E-score (8-mer binding enrichment) (E-score (-0.5 to 0.5)); higher = stronger / more preferred TF binding
Conditions: protein concentration: 100 nM; construct: GST-full length
In short: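 For each ungapped eight-base word taken together with its reverse complement, the Universal PBM Analysis Suite assigned an E-score. Binding data came from GST-tagged yeast transcription factors, applied at about 100-200 nM, on universal all-10-mer Agilent arrays made double-stranded by primer extension. Fluorescent anti-GST marked bound protein, and scans were normalised with masliner.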

Row | Sequence | PBM E-score
1 | AAGCGCTT | 0.306
2 | CCGTATAC | 0.0361
3 | CCGAGACA | 0.0813
4 | CATGGCCC | -0.132
5 | ATCCGGTG | 0.353
6 | CGGTGCAC | -0.1
7 | CTATAGCC | -0.202
8 | ACTATTCA | 0.0829
9 | CTCCAGAC | -0.0743
10 | GGGACAAA | -0.00844
11 | CGGTTCCC | 0.0223
12 | TAGGTTAA | 0.0756
13 | CAACCGCC | -0.042
14 | CTTATGTC | -0.135
15 | TCCGTTAA | 0.305
16 | TGATAGCA | 0.0336
17 | CTGTCCGC | 0.0717
18 | AAATGATA | 0.162
19 | ATGTAAAT | 0.0693
20 | GACTTTCA | -0.0149
21 | GACAACCC | -0.0862
22 | AGCGGATG | -0.0323
23 | ATACACGG | 0.047
24 | ATTCAGAA | 0.0922
25 | AGAGCTAC | -0.15

Row | Sequence | PBM E-score
26 | CGGCACTC | 0.124
27 | CCGAAGGA | 0.158
28 | CACGATCC | 0.127
29 | AGGGGCCC | -0.227
30 | GCACAAGC | -0.033
31 | CTAATTAG | -0.0123
32 | GGGAATCA | 0.0818
33 | CAAAGCCG | 0.271
34 | TAAAGGCA | 0.0318
35 | ACAAAAGT | 0.105
36 | AAGGGACG | -0.26
37 | CGAGTAGA | -0.111
38 | ACAAAATC | 0.0566
39 | ACTTGATG | -0.0546
40 | ACCTGCGT | -0.142
41 | CCTTAAGG | -0.0623
42 | CGCATACG | 0.0649
43 | ATCAGTCC | -0.362
44 | GGGTTGAA | -0.0729
45 | CGCTAGGA | -0.042
46 | GAAGTAGC | -0.00548
47 | AACCACAT | -0.0437
48 | GATGGGGA | -0.22
49 | GTGGCCAA | -0.156
50 | GGCCTTTA | -0.0707

An excerpt of these results, with tabs:
Row	Sequence	PBM E-score
32	GGGAATCA	0.0818
33	CAAAGCCG	0.271

Remaining list, next part:

Row | Sequence | PBM E-score
51 | TAGAGTAA | 0.0733
52 | AGATCAAG | 0.136
53 | AAGGTTCG | -0.0331
54 | GTTGGCAA | -0.00934
55 | TATGTGAA | -0.0479
56 | GCCTAACC | -0.232
57 | CAAAGTCC | -0.0601
58 | CCCCTTCG | -0.276
59 | CAGCGCCG | 0.208
60 | GCACATAA | -0.0273
61 | AACCTGCC | -0.129
62 | CCAGGTAC | -0.108
63 | CAGCAGAC | 0.139
64 | CGGAGAAA | 0.255
65 | CCGTGTCC | 0.163
66 | ACGTATCA | -0.0301
67 | CCAGGTAA | -0.0658
68 | AACTAATA | 0.25
69 | GCTAGGAA | 0.0829
70 | CCTACGCG | -0.163
71 | AGTGCTCG | -0.101
72 | CCAACAGA | -0.163
73 | CACCTACC | -0.229
74 | CAGAAAAA | 0.131
75 | AGCGGGGA | -0.158

Row | Sequence | PBM E-score
76 | CGGGTTTA | 0.228
77 | ACACCGCT | -0.231
78 | CATTCTAG | -0.129
79 | GGGCTAAA | -0.0747
80 | ATCTCGAG | 0.0414
81 | ACACGTAC | -0.205
82 | CAACGGTC | 0.0501
83 | AGAGGCGA | -0.246
84 | AGAGGCAA | -0.0864
85 | GGAGGCCA | -0.138
86 | GAGCAATC | 0.0694
87 | ACCTTCTA | -0.0294
88 | GCCCCATA | -0.275
89 | GCTTGGAA | -0.0326
90 | AGGTAATG | 0.0549
91 | AATTTAAA | 0.241
92 | CTCGTGAC | -0.0955
93 | ACGACCAA | 0.0102
94 | ACACTTCG | -0.0091
95 | CACAGAGG | -0.151
96 | GGACCTAC | -0.148
97 | CCTGGCCG | 0.0828
98 | AAATTTCT | 0.223
99 | CCTATGCA | -0.172
100 | CATTCGGA | 0.338

Row | Sequence | PBM E-score
101 | CCATCCAA | 0.0304
102 | CGGGGTAA | 0.214
103 | ACAATTTC | 0.0292
104 | ATCTGCCG | 0.282
105 | CCACACGC | -0.144
106 | GACCACGC | -0.0179
107 | TCTCGCCA | -0.135
108 | CGTGCTAC | -0.172
109 | ACCTGGTC | -0.0673
110 | CGTTGTTC | -0.00041
111 | CAAGTAAA | 0.0872
112 | CTGGTAGA | -0.0327
113 | CTTAGAGC | 0.0355
114 | AGCTTCCA | 0.00498
115 | ACAGAGGT | -0.0473
116 | GGGTGGTA | -0.0919
117 | CGTTGAAC | -0.0122
118 | AGCGATAA | 0.0299
119 | ACAGGCCT | -0.0761
120 | CGTAACAC | 0.0589
121 | GCTTCCGA | 0.306
122 | CTCTGTAA | -0.00676
123 | ATATGGTG | -0.0255
124 | CCAACTTC | -0.0764
125 | GACCAGTA | -0.139

Row | Sequence | PBM E-score
126 | ACCCCCAG | -0.227
127 | GTGAATTA | 0.118
128 | CGGAATAC | 0.353
129 | ACACTCTA | 0.0906
130 | ATCGTACA | 0.163
131 | AGGTCTCA | -0.0573
132 | CATCCTAG | -0.236
133 | AGGAAGAG | 0.00885
134 | ACCCGTCT | -0.162
135 | ACGGAGAG | -0.0167
136 | TACTAAAA | 0.149
137 | TCCTCACA | 0.0484
138 | GAGAGTGA | -0.0128
139 | AAATGTCA | 0.0731
140 | CACTCTTA | -0.0433
141 | GACACCTC | -0.0931
142 | GCGTGTCA | 0.135
143 | GCCCGGGC | 0.297
144 | ACTCCAGA | -0.0619
145 | CTTGAAAC | 0.218
146 | CTTCGACA | 0.0235
147 | ACTAGTAG | -0.0313
148 | AGAACGAT | 0.116
149 | ATGCGCAC | -0.0652
150 | CAAACGAC | 0.0292

Row | Sequence | PBM E-score
151 | AAAGCGTG | -0.0676
152 | AGGGCGAA | -0.14
153 | CCAGCCCA | -0.258
154 | CCTGAGGC | -0.282
155 | GGGAAACA | 0.22
156 | CCGAACGA | 0.245
157 | AGCCCGCG | 0.136
158 | ATTTTTTA | 0.274
159 | AATGTATG | 0.0182
160 | GATCGCCA | -0.202
161 | TGTCGGAA | 0.163
162 | CATCCATG | -0.136
163 | GACCGGAA | 0.232
164 | ACTAAATC | 0.173
165 | AAAGATGA | 0.18
166 | CAGTATAG | 0.131
167 | CACACGGC | 0.205
168 | CAATCACC | -0.0272
169 | AAGATGAC | -0.0342
170 | AGATTGAG | 0.0421
171 | GGAAGTGA | 0.0956
172 | CGCGCGCC | 0.208

Fetched one by one from above (six):
Row | Sequence | PBM E-score
161 | TGTCGGAA | 0.163
168 | CAATCACC | -0.0272
159 | AATGTATG | 0.0182
153 | CCAGCCCA | -0.258
169 | AAGATGAC | -0.0342
158 | ATTTTTTA | 0.274
